{
  "source": "paper PMC8072890",
  "about": "“Aminoalkylamides of Eremomycin Exhibit an Improved Antibacterial Activity” (Pharmaceuticals, 2021)",
  "system": "S. pneumoniae ATCC 6305",
  "format": "cell-based",
  "conditions": "sensitive strain; broth dilution micromethod, CLSI; modal values (or range) of 3–5 independent tests",
  "description": "The antimicrobial activity of semisynthetic derivatives of eremomycin 4a–q was studied in comparison with vancomycin on a wide panel of Gram-positive bacteria sensitive (Staphylococcus aureus ATCC 29213, S. aureus R-2, S. haemoliticus 602, S. pneumoniae ATCC 6305, Enteroccus faecium 4, and E. faecalis 559) and resistant to vancomycin (S. aureus 3797, S.aureus 3798, E. faecium 2, E. faecium 3576, E. faecalis 9, E. faecalis 583, and E. gallinarum BΠ 4147), information about the strains given in Table S3. The minimum microbial inhibitory concentration (MIC) for the test compounds was determined by the broth dilution micromethod according to CLSI guidelines, and vancomycin and a standard strain S. aureus ATCC 29213 used as controls (Figure 2 and Tables S4 and S5).\nTable S4. Antibacterial activity of vancomycin and derivatives 4a–q against sensitive Gram-positive bacteria.\nStrain/MIC (Minimum inhibitory concentration, μg/ml)*\nCompound m n R S.aureus АТСС S.aureus R-2 S.haemoliticus S.pneumoniae АТСС E. faecium 4 E. faecalis 559\n*MICs are presented as modal values for 3–5 independently replicated MIC tests for each strain and for the antibiotics. In the range of the\nobtained MIC values, the obtained modal values are highlighted in bold.",
  "data": [
    {"smiles": "CN[C@H](CC(C)C)C(=O)N[C@H]1C(=O)N[C@@H](CC(N)=O)C(=O)N[C@H]2C(=O)N[C@H]3C(=O)N[C@H](C(=O)N[C@H](C(=O)O)c4cc(O)cc(O)c4-c4cc3ccc4O)[C@H](O)c3ccc(c(Cl)c3)Oc3cc2cc(c3O[C@@H]2O[C@H](CO)[C@@H](O)[C@H](O)[C@H]2O[C@H]2C[C@](C)(N)[C@H](O)[C@H](C)O2)Oc2ccc(cc2Cl)[C@H]1O", "note": "[Vancomycin, vancomycin, reference compound]", "values": [
      {"measurement": "MIC S.pneumoniae ATCC 6305", "value": "0,25 μg/ml"}
    ]}
  ]
}
